In article PMC4207616 one finds binding data, which are given here for 3 molecules.

No constants are given. Whether binding was seen depends on the method and setting. Binding seen in cells or lysates may run through a third protein. Some binding calls cover weakened binding; strength is not graded here. Tags and fused reporters may be left off the sequences shown.

To fix the notation:
T1: RRS1^WT-His-Flag (Arabidopsis thaliana) (UniProt C4B7M5)
T1 sequence: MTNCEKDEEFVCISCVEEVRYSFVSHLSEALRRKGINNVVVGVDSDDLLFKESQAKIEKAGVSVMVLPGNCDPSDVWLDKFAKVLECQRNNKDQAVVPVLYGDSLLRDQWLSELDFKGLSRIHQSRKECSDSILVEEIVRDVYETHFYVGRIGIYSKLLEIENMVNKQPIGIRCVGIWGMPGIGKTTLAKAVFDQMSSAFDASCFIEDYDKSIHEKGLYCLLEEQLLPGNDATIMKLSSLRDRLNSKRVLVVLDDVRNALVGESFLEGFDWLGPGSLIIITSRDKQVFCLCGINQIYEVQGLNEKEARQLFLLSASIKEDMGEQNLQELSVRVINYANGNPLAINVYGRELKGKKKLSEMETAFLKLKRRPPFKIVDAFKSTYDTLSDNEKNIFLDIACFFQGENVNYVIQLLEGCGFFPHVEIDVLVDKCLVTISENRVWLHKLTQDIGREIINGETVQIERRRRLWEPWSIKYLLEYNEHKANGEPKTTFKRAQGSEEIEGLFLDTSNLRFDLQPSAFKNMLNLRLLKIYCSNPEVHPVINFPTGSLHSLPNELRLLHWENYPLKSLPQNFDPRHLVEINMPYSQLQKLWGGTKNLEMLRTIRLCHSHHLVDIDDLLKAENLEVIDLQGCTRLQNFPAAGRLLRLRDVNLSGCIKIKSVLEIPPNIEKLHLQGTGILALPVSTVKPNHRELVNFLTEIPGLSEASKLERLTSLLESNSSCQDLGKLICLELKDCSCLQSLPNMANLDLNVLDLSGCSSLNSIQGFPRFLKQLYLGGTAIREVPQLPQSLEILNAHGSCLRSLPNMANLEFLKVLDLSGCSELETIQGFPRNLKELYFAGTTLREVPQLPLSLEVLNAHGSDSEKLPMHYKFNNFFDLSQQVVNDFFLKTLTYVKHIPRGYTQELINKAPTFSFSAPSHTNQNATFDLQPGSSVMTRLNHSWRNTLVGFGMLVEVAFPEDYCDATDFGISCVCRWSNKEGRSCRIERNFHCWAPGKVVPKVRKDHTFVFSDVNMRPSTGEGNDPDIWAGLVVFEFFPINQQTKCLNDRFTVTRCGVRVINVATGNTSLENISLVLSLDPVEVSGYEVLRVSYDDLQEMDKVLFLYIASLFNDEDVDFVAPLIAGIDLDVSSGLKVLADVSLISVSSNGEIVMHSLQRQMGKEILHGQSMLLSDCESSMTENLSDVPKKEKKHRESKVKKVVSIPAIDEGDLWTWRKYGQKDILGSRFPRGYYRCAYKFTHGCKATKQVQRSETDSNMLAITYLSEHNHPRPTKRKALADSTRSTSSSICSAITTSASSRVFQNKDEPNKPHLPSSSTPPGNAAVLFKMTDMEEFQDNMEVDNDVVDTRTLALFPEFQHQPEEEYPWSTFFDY

B1: RPS4^WT-HA (protein, UniProt Q9XGM3 1-1217)
chain: METSSISTVEDKPPQHQVFINFRGADLRRRFVSHLVTALKLNNINVFIDDYEDRGQPLDVLLKRIEESKIVLAIFSGNYTESVWCVRELEKIKDCTDEGTLVAIPIFYKLEPSTVRDLKGKFGDRFRSMAKGDERKKKWKEAFNLIPNIMGIIIDKKSVESEKVNEIVKAVKTALTGIPPEGSHNAVVGALGNSNAGTSSGDKKHETFGNEQRLKDLEEKLDRDKYKGTRIIGVVGMPGIGKTTLLKELYKTWQGKFSRHALIDQIRVKSKHLELDRLPQMLLGELSKLNHPHVDNLKDPYSQLHERKVLVVLDDVSKREQIDALREILDWIKEGKEGSRVVIATSDMSLTNGLVDDTYMVQNLNHRDSLQLFHYHAFIDDQANPQKKDFMKLSEGFVHYARGHPLALKVLGGELNKKSMDHWNSKMKKLAQSPSPNIVSVFQVSYDELTTAQKDAFLDIACFRSQDKDYVESLLASSDLGSAEAMSAVKSLTDKFLINTCDGRVEMHDLLYKFSREVDLKASNQDGSRQRRLWLHQHIIKGGIINVLQNKMKAANVRGIFLDLSEVEDETSLDRDHFINMGNLRYLKFYNSHCPQECKTNNKINIPDKLKLPLKEVRCLHWLKFPLETLPNDFNPINLVDLKLPYSEMEQLWEGDKDTPCLRWVDLNHSSKLCSLSGLSKAEKLQRLNLEGCTTLKAFPHDMKKMKMLAFLNLKGCTSLESLPEMNLISLKTLTLSGCSTFKEFPLISDNIETLYLDGTAISQLPMNMEKLQRLVVLNMKDCKMLEEIPGRVGELKALQELILSDCLNLKIFPEIDISFLNILLLDGTAIEVMPQLPSVQYLCLSRNAKISCLPVGISQLSQLKWLDLKYCTSLTSVPEFPPNLQCLDAHGCSSLKTVSKPLARIMPTEQNHSTFIFTNCENLEQAAKEEITSYAQRKCQLLSYARKRYNGGLVSESLFSTCFPGCEVPSWFCHETVGSELEVKLLPHWHDKKLAGIALCAVVSCLDPQDQVSRLSVTCTFKVKDEDKSWVAYTCPVGSWTRHGGGKDKIELDHVFIGYTSCPHTIKCHEEGNSDECNPTEASLKFTVTGGTSENGKYKVLKCGLSLVYAKDKDKNSALETKYDMLIGKSFQETSEGVDGRVKKTKGKYVMPVEKNFQETTEGVDGRVNKKKKTRMDNGRPKKKQRSGRDDNQTRMQVELQEGNINSVIMHTVKNF
B2: RPS4^SH-AA-HA (protein, UniProt Q9XGM3 1-1217)
chain: METSSISTVEDKPPQHQVFINFRGADLRRRFVAALVTALKLNNINVFIDDYEDRGQPLDVLLKRIEESKIVLAIFSGNYTESVWCVRELEKIKDCTDEGTLVAIPIFYKLEPSTVRDLKGKFGDRFRSMAKGDERKKKWKEAFNLIPNIMGIIIDKKSVESEKVNEIVKAVKTALTGIPPEGSHNAVVGALGNSNAGTSSGDKKHETFGNEQRLKDLEEKLDRDKYKGTRIIGVVGMPGIGKTTLLKELYKTWQGKFSRHALIDQIRVKSKHLELDRLPQMLLGELSKLNHPHVDNLKDPYSQLHERKVLVVLDDVSKREQIDALREILDWIKEGKEGSRVVIATSDMSLTNGLVDDTYMVQNLNHRDSLQLFHYHAFIDDQANPQKKDFMKLSEGFVHYARGHPLALKVLGGELNKKSMDHWNSKMKKLAQSPSPNIVSVFQVSYDELTTAQKDAFLDIACFRSQDKDYVESLLASSDLGSAEAMSAVKSLTDKFLINTCDGRVEMHDLLYKFSREVDLKASNQDGSRQRRLWLHQHIIKGGIINVLQNKMKAANVRGIFLDLSEVEDETSLDRDHFINMGNLRYLKFYNSHCPQECKTNNKINIPDKLKLPLKEVRCLHWLKFPLETLPNDFNPINLVDLKLPYSEMEQLWEGDKDTPCLRWVDLNHSSKLCSLSGLSKAEKLQRLNLEGCTTLKAFPHDMKKMKMLAFLNLKGCTSLESLPEMNLISLKTLTLSGCSTFKEFPLISDNIETLYLDGTAISQLPMNMEKLQRLVVLNMKDCKMLEEIPGRVGELKALQELILSDCLNLKIFPEIDISFLNILLLDGTAIEVMPQLPSVQYLCLSRNAKISCLPVGISQLSQLKWLDLKYCTSLTSVPEFPPNLQCLDAHGCSSLKTVSKPLARIMPTEQNHSTFIFTNCENLEQAAKEEITSYAQRKCQLLSYARKRYNGGLVSESLFSTCFPGCEVPSWFCHETVGSELEVKLLPHWHDKKLAGIALCAVVSCLDPQDQVSRLSVTCTFKVKDEDKSWVAYTCPVGSWTRHGGGKDKIELDHVFIGYTSCPHTIKCHEEGNSDECNPTEASLKFTVTGGTSENGKYKVLKCGLSLVYAKDKDKNSALETKYDMLIGKSFQETSEGVDGRVKKTKGKYVMPVEKNFQETTEGVDGRVNKKKKTRMDNGRPKKKQRSGRDDNQTRMQVELQEGNINSVIMHTVKNF
B3: RPS4^K242A-HA (protein, UniProt Q9XGM3 1-1217)
chain: METSSISTVEDKPPQHQVFINFRGADLRRRFVSHLVTALKLNNINVFIDDYEDRGQPLDVLLKRIEESKIVLAIFSGNYTESVWCVRELEKIKDCTDEGTLVAIPIFYKLEPSTVRDLKGKFGDRFRSMAKGDERKKKWKEAFNLIPNIMGIIIDKKSVESEKVNEIVKAVKTALTGIPPEGSHNAVVGALGNSNAGTSSGDKKHETFGNEQRLKDLEEKLDRDKYKGTRIIGVVGMPGIGATTLLKELYKTWQGKFSRHALIDQIRVKSKHLELDRLPQMLLGELSKLNHPHVDNLKDPYSQLHERKVLVVLDDVSKREQIDALREILDWIKEGKEGSRVVIATSDMSLTNGLVDDTYMVQNLNHRDSLQLFHYHAFIDDQANPQKKDFMKLSEGFVHYARGHPLALKVLGGELNKKSMDHWNSKMKKLAQSPSPNIVSVFQVSYDELTTAQKDAFLDIACFRSQDKDYVESLLASSDLGSAEAMSAVKSLTDKFLINTCDGRVEMHDLLYKFSREVDLKASNQDGSRQRRLWLHQHIIKGGIINVLQNKMKAANVRGIFLDLSEVEDETSLDRDHFINMGNLRYLKFYNSHCPQECKTNNKINIPDKLKLPLKEVRCLHWLKFPLETLPNDFNPINLVDLKLPYSEMEQLWEGDKDTPCLRWVDLNHSSKLCSLSGLSKAEKLQRLNLEGCTTLKAFPHDMKKMKMLAFLNLKGCTSLESLPEMNLISLKTLTLSGCSTFKEFPLISDNIETLYLDGTAISQLPMNMEKLQRLVVLNMKDCKMLEEIPGRVGELKALQELILSDCLNLKIFPEIDISFLNILLLDGTAIEVMPQLPSVQYLCLSRNAKISCLPVGISQLSQLKWLDLKYCTSLTSVPEFPPNLQCLDAHGCSSLKTVSKPLARIMPTEQNHSTFIFTNCENLEQAAKEEITSYAQRKCQLLSYARKRYNGGLVSESLFSTCFPGCEVPSWFCHETVGSELEVKLLPHWHDKKLAGIALCAVVSCLDPQDQVSRLSVTCTFKVKDEDKSWVAYTCPVGSWTRHGGGKDKIELDHVFIGYTSCPHTIKCHEEGNSDECNPTEASLKFTVTGGTSENGKYKVLKCGLSLVYAKDKDKNSALETKYDMLIGKSFQETSEGVDGRVKKTKGKYVMPVEKNFQETTEGVDGRVNKKKKTRMDNGRPKKKQRSGRDDNQTRMQVELQEGNINSVIMHTVKNF

The target in the assay is T1, RRS1^WT-His-Flag (Arabidopsis thaliana). Put plainly: co-IP; RRS1-His-Flag and RPS4-HA variants transiently co-expressed in N. benthamiana (48 h after agroinfiltration); extract in GTEN buffer (10% glycerol, 100 mM Tris-HCl pH 7.5, 1 mM EDTA, 150 mM NaCl) with 5 mM DTT, protease inhibitors, 0.2% Nonidet P-40; anti-FLAG M2 or anti-HA affinity gel, 2 h at 4°C; immunoblot.
Take B1: the binding result was “binds”.

In the case of B2, the binding entry was “binds”.

For B3, the binding result was “binds”.
